Our source for the binding values is article PMC10497535.

These are yes or no findings as the source states them, for the method shown. In cells and extracts the contact can be indirect. Tags and fused reporters may be left off the sequences shown.

The assay deals with EGFP-tagged syntaxin-4 (human) (UniProt Q12846). Nature of the assay: FRET or BRET; FLIM-FRET in MCF-7 cells co-transfected with pEGFP-C1-Qa-SNARE (donor) and pmCherry-C1 empty vector or pmCherry-C1-SNARE (acceptor); lifetime of EGFP read by TCSPC. Background: In BRET a luciferase serves as donor, and the signal depends on an acceptor being close.

B1: mCherry-tagged Sec20 (protein, UniProt Q12981 1-228)
chain: MAAPQDVHVRICNQEIVKFDLEVKALIQDIRDCSGPLSALTELNTKVKEKFQQLRHRIQDLEQLAKEQDKESEKQLLLQEVENHKKQMLSNQASWRKANLTCKIAIDNLEKAELLQGGDLLRQRKTTKESLAQTSSTITESLMGISRMMAQQVQQSEEAMQSLVTSSRTILDANEEFKSMSGTIQLGRKLITKYNRRELTDKLLIFLALALFLATVLYIVKKRLFPFL
As for B1, the binding entry is reported as “no binding”.
